System: HeLa cells
Test: Cytotoxicity evaluation of drug composition in vitro (WST-8 assay)
Format: cell-based
Conditions: Homo sapiens, cultured 24 hours at 37° C., tube/Dox molar ratio 7, read-out: IC50 (half maximal inhibitor concentration)
Procedure: Toxicity evaluation may be performed by adding and culturing encapsulated doxorubicin in various asymmetric nanotubes using HeLa cells and evaluating the number of cells. Comparison with doxorubicin itself and evaluation of nanotube itself may be performed by the same method.
Cytotoxicity of various asymmetric nanotubes encapsulating doxorubicin obtained in Example 8 was evaluated as follows. That is, HeLa cells (1×10^4) and various nanotubes encapsulating doxorubicin obtained in Example 8 were added into a 96-well plate so that concentrations of doxorubicin became equal to each other, using a Dulbecco's modified eagle medium (DMEM) added with fetal bovine serum (10%) as a cell culture medium for encapsulation and cultured at 37° C. under 5% CO2 atmosphere for 24 hours. The concentration of doxorubicin was 0.01 to 20 μg/mL. Further, a molar ratio (Compound 1/Dox) of the tube to doxorubicin in the used encapsulation body was 7. As a control experiment, the same experiment was performed on doxorubicin. After culture, the supernatant was removed, and the obtained cells was washed with a PBS buffer (pH 7.4). Thereafter, cell viability was investigated through WST-8 assay, thereby calculating the half maximal inhibitor concentration (IC50). […]

Work on `COc1cccc2c1C(=O)c1c(O)c3c(c(O)c1C2=O)C[C@@](O)(C(=O)CO)C[C@@H]3O[C@H]1C[C@H](N)[C@H](O)[C@H](C)O1` [Dox, doxorubicin] yielded an IC50 of 0.91 ± 0.12 µg/mL.

— patent US9018156B2, “Organic nanotube having hydrophobized inner surface, and encapsulated medicinal agent prepared using the nanotube” (National Institute of Advanced Industrial Science and …, priority 2011, dated 2015)
